Assay results as given in patent US20070185014A1, “Methods and compositions for modulating conjunctival goblet cells” (The Schepens Eye Research Institute, Inc., priority 2006, published 2007).
At least one compound was matched to its structure with a doubt left.

Tested on: rat conjunctival goblet cells
Assay: Goblet cell proliferation, WST tetrazolium assay (Example 3A, Fluorescence Assay)
Assay type: cell-based
Conditions: added at 10^−4
Description: Conjunctival tissue from the fomical area and the nictitating membranes were removed from male Sprague Dawley rats. Tissue pieces were placed in explant culture in RPMI supplemented with fetal bovine serum (FBS). […] Non-goblet cells, predominantly fibroblasts, were removed by scraping. Goblet cells were allowed to grow and proliferate for several days. Cells were removed from the tissue culture vessel by trypsin treatment. The number of cells was counted using a coulter counter. For measurement of proliferation 200 cells were seeded onto 96 well plates. Cells were allowed to attach and proliferate until a sparsely confluent level was obtained, about two days.
Goblet cells from passage 1 or 2 cultured as above were used for measurement of proliferation. Cells were plated at 200 cells/well. Cells were serum-starved for 24 or 48 hrs. Test compounds in varying concentrations were added to each cell well for 24 hrs. The positive control for proliferation was the addition of 10% FBS, a known maximal stimulator of proliferation. Proliferation was terminated by the removal of medium.

Compound: C=C[C@@]1(C)CC(=O)[C@]2(O)[C@@]3(C)[C@@H](O)CCC(C)(C)[C@@H]3[C@H](O)[C@H](OC(C)=O)[C@@]2(C)O1 [Forskolin, forskolin, reference compound]
- effect on goblet cell proliferation: did not increase proliferation at the concentrations tested
